Data source: PubChem BioAssay AID504791 (Drosophila RNAi Screening Center, 2011)
The deposit covers about 23,000 reagents; shown is an unselected part of those with a known target gene and a result. Of all reagents, 199 (0.86%) are marked active. 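Plate-scaled ratios behind the calls are not deposited; printed light signals are raw; many rows marked increased or decreased are still called inactive.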 Unmarked entries are inactive. Names joined by + are all predicted targets of the reagent. No sequences are given here. Not given: the direction of the score.

- Test: 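Genes of the fly required for silencing by miRNA, siRNA or endo-siRNA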 (primary screen)
- Cells: Drosophila S2-derived reporter cells
- Knock-down reagent: long dsRNA against Drosophila genes, about 150-250 ng dsRNA per well (siRNA assay); about 80-120 ng (miRNA assay)
- Time to read-out: about 5 days (siRNA assay); about 4 days (miRNA assay)
- Conditions: copper sulfate induction of reporters: 25 µM (siRNA assay); 200 mM stated (miRNA assay), 1-2 days before reading
- Measurement: 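Dual luciferase assay: Renilla to firefly signal ratio in each well, scaled to the mean ratio of its plate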
- Hit rule: 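First-pass picks had plate-scaled ratios over 1.5 for the siRNA assay, over 1.6 for the miRNA assay, or under 0.6; two distinct dsRNAs had to score alike on retest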

target	PubChem SID	stable siRNA reporter change	miRNA reporter change	stable assay Renilla, run 1 (luminescence)	stable assay firefly, run 1 (luminescence)
CG12301	SID104189667			6919	3.80e5
Sgsh	SID104194563			6678	5.23e5
Alk	SID104185710			4487	3.83e5
Alk	SID104202699			3579	2.71e5
hoka	SID104188105			6868	5.31e5
LRP1	SID104187030			6587	3.62e5
sotv + CG10731	SID104185722			6032	3.11e5
sotv + CG10731	SID104185789			6583	2.67e5
KFase	SID104183050			7070	4.34e5
CG9130 + CG9133	SID104188416			6234	4.76e5
CG9130 + CG9133	SID104188417			10080	4.64e5
CG9130 + CG9133	SID104201599			9742	6.15e5
lncRNA:sphinx + ATPsynF	SID104196983			6943	4.47e5
Ent2	SID104181916			24760	5.53e5
Taf9	SID104200118			7695	5.71e5
ebd2	SID104191474			8235	3.46e5
CG12817 + CG12420	SID104202173			4092	3.50e5
CG30083	SID104185364			7367	4.85e5
CG32112	SID104189607			7006	4.21e5
Cog6	SID104186598			7567	3.46e5
fos28F (retired record)	SID104183183			8510	5.90e5
CG1677	SID104197908			4440	3.61e5
CG33125	SID104179937			4880	3.43e5
gw	SID104196927		reporter ratio lowered past the hit cutoff (active)	4607	2.29e5
gw	SID104196952			3776	1.67e5
PIG-L	SID104195369			7298	3.95e5
CG3744	SID104195303			6035	2.99e5
MED10	SID104190266			5570	2.64e5
CG34268	SID104187666			4944	4.59e5
CG6125	SID104195762			7631	4.23e5
Rab9	SID104183073			7251	5.25e5
CG13110	SID104182000			5219	4.40e5
Osi19	SID104192361			6882	4.98e5
CG31659	SID104180552			6683	3.46e5
CG2157	SID104199628			4812	3.83e5
Lcp65APsi	SID104188587			4542	4.28e5
Lcp65APsi	SID104190134			6486	5.12e5
Usp30	SID104198057			5720	3.12e5
heca	SID104196756			5100	2.43e5
heca	SID104202347			4444	3.88e5
CG14960	SID104188211			4776	3.59e5
CG16984	SID104188292			6706	3.51e5
Gr59b	SID104183971			6183	3.54e5
ana2	SID104185744			8230	3.79e5
hob	SID104188218			6779	3.64e5
St3	SID104184297			9012	4.08e5
Su(dx)	SID104180583			30528	1.01e6
mthl7	SID104190644			5487	3.83e5
ND-B14	SID104186821			5552	3.69e5
CG34015	SID104198932	reporter ratio raised past the hit cutoff		2155	79760
per	SID104198610			6122	3.48e5
CG5916	SID104195709			8399	4.39e5
CG1578	SID104199521			8560	4.46e5
AlkB	SID104198907			4624	4.07e5
CG3494	SID104184167			7244	4.15e5
Or43b	SID104187278			6567	3.74e5
SH3PX1	SID104190931			4738	3.14e5
